{"source": "the supplement of paper PMC3334620", "note": "In all, about 33,000 sequences were measured (“E-score (-0.5 to 0.5)”: median about -0.0034, highest 2% from about 0.25 on). The list shows a part of the results."}
{"target": "T1, Yap3 (UniProt P38749)", "T1 sequence": "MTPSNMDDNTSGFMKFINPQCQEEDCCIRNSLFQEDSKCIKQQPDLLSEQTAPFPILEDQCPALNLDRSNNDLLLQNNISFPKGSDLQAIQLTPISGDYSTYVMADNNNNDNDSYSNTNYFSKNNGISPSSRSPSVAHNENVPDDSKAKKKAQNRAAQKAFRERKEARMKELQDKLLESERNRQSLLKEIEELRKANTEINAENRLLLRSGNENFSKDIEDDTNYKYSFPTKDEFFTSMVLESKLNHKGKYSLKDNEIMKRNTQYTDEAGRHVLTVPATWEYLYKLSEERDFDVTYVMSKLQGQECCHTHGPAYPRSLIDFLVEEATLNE", "assay": "PBM E-score (8-mer binding enrichment) (E-score (-0.5 to 0.5)); higher = stronger / more preferred TF binding", "settings": "protein concentration: 100 nM; construct: GST-full length", "in_short": "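Full-length yeast transcription factors or their DNA-binding domains, GST-tagged and expressed with PURExpress, were applied at about 100-200 nM to universal all-10-mer Agilent arrays. These arrays had been made double-stranded by primer extension on fresh or once-stripped slides. Detection used fluorescent anti-GST, normalisation used masliner, and E-scores for ungapped eight-base words pooled with reverse complements came from the Universal PBM Analysis Suite.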"}
{"sequence": "CCGGCACA", "PBM E-score": -0.159}
{"sequence": "GCATAACA", "PBM E-score": 0.157}
{"sequence": "CGATCGAG", "PBM E-score": 0.00454}
{"sequence": "ATTGATGC", "PBM E-score": 0.0347}
{"sequence": "GACCTAGC", "PBM E-score": -0.0583}
{"sequence": "GCGGTTAA", "PBM E-score": 0.112}
{"sequence": "CTCGTGAA", "PBM E-score": 0.0772}
{"sequence": "CCATCGGA", "PBM E-score": -0.201}
{"sequence": "CACGAGAA", "PBM E-score": -0.0681}
{"sequence": "GCTTTTAC", "PBM E-score": 0.0709}
{"sequence": "GTGAACGA", "PBM E-score": 0.0444}
{"sequence": "ACTCTAGA", "PBM E-score": 0.0228}
{"sequence": "ATCTTGGA", "PBM E-score": -0.131}
{"sequence": "ATAAACGA", "PBM E-score": 0.254}
{"sequence": "CAACGACG", "PBM E-score": -0.105}
{"sequence": "AGCGTGTG", "PBM E-score": 0.0438}
{"sequence": "ACGAAGTC", "PBM E-score": -0.11}
{"sequence": "ACACTCAT", "PBM E-score": -0.0139}
{"sequence": "GCGGCCGC", "PBM E-score": -0.245}
{"sequence": "CCCTAATC", "PBM E-score": -0.0713}
{"sequence": "CATGCCCA", "PBM E-score": -0.321}
{"sequence": "ACGAAAGG", "PBM E-score": 0.0876}
{"sequence": "CAGACCGG", "PBM E-score": -0.16}
{"sequence": "GCATGGAC", "PBM E-score": -0.174}
{"sequence": "CTGAATCA", "PBM E-score": 0.0612}
{"sequence": "GTTGTTTA", "PBM E-score": 0.273}
{"sequence": "AGGCCAAC", "PBM E-score": -0.122}
{"sequence": "CGAGACAC", "PBM E-score": -0.173}
{"sequence": "AAAGCCGT", "PBM E-score": 0.0204}
{"sequence": "CTGAATGA", "PBM E-score": 0.12}
{"sequence": "ATCTTTTA", "PBM E-score": 0.14}
{"sequence": "GCACGGGC", "PBM E-score": -0.26}
{"sequence": "ACAGGGCC", "PBM E-score": -0.0904}
{"sequence": "CGTGGACA", "PBM E-score": -0.141}
{"sequence": "AACCGTTG", "PBM E-score": 0.146}
{"sequence": "CGCATGCG", "PBM E-score": 0.00516}
{"sequence": "ACGGTCGA", "PBM E-score": -0.0505}
{"sequence": "AAAACTGC", "PBM E-score": 0.0136}
{"sequence": "CTAGGAAC", "PBM E-score": -0.0179}
{"sequence": "CTACAGCC", "PBM E-score": -0.114}
{"sequence": "ATGATGTG", "PBM E-score": 0.00874}
{"sequence": "ATAGGTCC", "PBM E-score": 0.093}
{"sequence": "AACGTAAA", "PBM E-score": 0.2}
{"sequence": "AACGGCGC", "PBM E-score": -0.0472}
{"sequence": "CGTCCGAA", "PBM E-score": -0.0193}
{"sequence": "GTCTTTTA", "PBM E-score": -0.078}
{"sequence": "CACGGCAG", "PBM E-score": -0.0231}
{"sequence": "CGTCAGAC", "PBM E-score": -0.0199}
{"sequence": "AGATTTTC", "PBM E-score": 0.0151}
{"sequence": "GACGTCAA", "PBM E-score": 0.152}
{"sequence": "ACGCGTCT", "PBM E-score": -0.0276}
{"sequence": "AGTGCCCG", "PBM E-score": -0.127}
{"sequence": "CTGCGCTC", "PBM E-score": -0.206}
{"sequence": "GCAAGTGC", "PBM E-score": -0.174}
{"sequence": "ATAGAAGG", "PBM E-score": -0.147}
{"sequence": "AGCCCCTG", "PBM E-score": -0.373}
{"sequence": "AACCCTAA", "PBM E-score": 0.0159}
{"sequence": "CACACTCA", "PBM E-score": 0.129}
{"sequence": "CCGACGCC", "PBM E-score": -0.199}
{"sequence": "AATAGGGT", "PBM E-score": -0.0163}
{"sequence": "CCGACTGA", "PBM E-score": -0.0346}
{"sequence": "GCCCTCGC", "PBM E-score": -0.153}
{"sequence": "GTGTATAA", "PBM E-score": 0.045}
{"sequence": "ATGTGGCG", "PBM E-score": 0.0147}
{"sequence": "CCCGGGCC", "PBM E-score": -0.363}
{"sequence": "ATACACTA", "PBM E-score": 0.161}
{"sequence": "AGCCTCCC", "PBM E-score": -0.344}
{"sequence": "TCGAGCGA", "PBM E-score": 0.0449}
{"sequence": "CAAGTATG", "PBM E-score": 0.0554}
{"sequence": "CAAATCAA", "PBM E-score": 0.267}
{"sequence": "CCGCACAC", "PBM E-score": -0.15}
{"sequence": "ACACAAAG", "PBM E-score": 0.173}
{"sequence": "AATTGTCC", "PBM E-score": 0.141}
{"sequence": "ACAGTACA", "PBM E-score": 0.102}
{"sequence": "AGATCGGA", "PBM E-score": 0.00021}
{"sequence": "CCTGATTA", "PBM E-score": 0.18}
{"sequence": "CGAATCCG", "PBM E-score": 0.0591}
{"sequence": "CACGCTCC", "PBM E-score": -0.28}
{"sequence": "CAGATATA", "PBM E-score": 0.0738}
{"sequence": "CCTTTAAC", "PBM E-score": 0.079}
{"sequence": "AATCCTTA", "PBM E-score": -0.0214}
{"sequence": "ATTCAACA", "PBM E-score": 0.0553}
{"sequence": "GAAGTCAA", "PBM E-score": 0.0714}
{"sequence": "AGCCTTTC", "PBM E-score": -0.157}
{"sequence": "AAAAGCCT", "PBM E-score": -0.243}
{"sequence": "ATAGTCAT", "PBM E-score": 0.0214}
{"sequence": "ATTCGCGA", "PBM E-score": 0.00641}
{"sequence": "CCCCCCCG", "PBM E-score": -0.486}
{"sequence": "ACGGGCCA", "PBM E-score": -0.0718}
{"sequence": "CAAAGGCC", "PBM E-score": -0.159}
{"sequence": "CGCCGGCA", "PBM E-score": -0.0536}
{"sequence": "CCGACCCA", "PBM E-score": -0.198}
{"sequence": "CCCCTGCG", "PBM E-score": -0.303}
{"sequence": "GACTGTGC", "PBM E-score": -0.129}
{"sequence": "ATTGTACA", "PBM E-score": 0.0579}
{"sequence": "TTATGCAA", "PBM E-score": 0.0592}
{"sequence": "AAGTACGC", "PBM E-score": 0.0601}
{"sequence": "ACGCTGGC", "PBM E-score": -0.0887}
{"sequence": "AACAGTAC", "PBM E-score": 0.0883}
{"sequence": "CTTGAGGC", "PBM E-score": -0.122}
{"sequence": "GTGACAGA", "PBM E-score": -0.0285}
{"sequence": "ACTGAACG", "PBM E-score": -0.0995}
{"sequence": "GAAATCTA", "PBM E-score": 0.146}
{"sequence": "AGCACAGA", "PBM E-score": 0.0779}
{"sequence": "AGACTTTA", "PBM E-score": -0.181}
{"sequence": "AGGGAATG", "PBM E-score": -0.0617}
{"sequence": "ATGTCTGG", "PBM E-score": 0.0998}
{"sequence": "AGAATTCT", "PBM E-score": 0.124}
{"sequence": "CCTGTCGC", "PBM E-score": -0.0531}
{"sequence": "AGACAGTG", "PBM E-score": -0.0416}
